Test results as given in PMC7359096.
These are yes or no findings as the source states them, for the method shown. In cells and extracts the contact can be indirect. Some entries that bind do so weakly or less than the wild type. Blank lines part the entries; values can stand above or below the molecule they belong to.

The chains behind the UniProt entries cited, without tags or fusion partners.
UniProt P35579: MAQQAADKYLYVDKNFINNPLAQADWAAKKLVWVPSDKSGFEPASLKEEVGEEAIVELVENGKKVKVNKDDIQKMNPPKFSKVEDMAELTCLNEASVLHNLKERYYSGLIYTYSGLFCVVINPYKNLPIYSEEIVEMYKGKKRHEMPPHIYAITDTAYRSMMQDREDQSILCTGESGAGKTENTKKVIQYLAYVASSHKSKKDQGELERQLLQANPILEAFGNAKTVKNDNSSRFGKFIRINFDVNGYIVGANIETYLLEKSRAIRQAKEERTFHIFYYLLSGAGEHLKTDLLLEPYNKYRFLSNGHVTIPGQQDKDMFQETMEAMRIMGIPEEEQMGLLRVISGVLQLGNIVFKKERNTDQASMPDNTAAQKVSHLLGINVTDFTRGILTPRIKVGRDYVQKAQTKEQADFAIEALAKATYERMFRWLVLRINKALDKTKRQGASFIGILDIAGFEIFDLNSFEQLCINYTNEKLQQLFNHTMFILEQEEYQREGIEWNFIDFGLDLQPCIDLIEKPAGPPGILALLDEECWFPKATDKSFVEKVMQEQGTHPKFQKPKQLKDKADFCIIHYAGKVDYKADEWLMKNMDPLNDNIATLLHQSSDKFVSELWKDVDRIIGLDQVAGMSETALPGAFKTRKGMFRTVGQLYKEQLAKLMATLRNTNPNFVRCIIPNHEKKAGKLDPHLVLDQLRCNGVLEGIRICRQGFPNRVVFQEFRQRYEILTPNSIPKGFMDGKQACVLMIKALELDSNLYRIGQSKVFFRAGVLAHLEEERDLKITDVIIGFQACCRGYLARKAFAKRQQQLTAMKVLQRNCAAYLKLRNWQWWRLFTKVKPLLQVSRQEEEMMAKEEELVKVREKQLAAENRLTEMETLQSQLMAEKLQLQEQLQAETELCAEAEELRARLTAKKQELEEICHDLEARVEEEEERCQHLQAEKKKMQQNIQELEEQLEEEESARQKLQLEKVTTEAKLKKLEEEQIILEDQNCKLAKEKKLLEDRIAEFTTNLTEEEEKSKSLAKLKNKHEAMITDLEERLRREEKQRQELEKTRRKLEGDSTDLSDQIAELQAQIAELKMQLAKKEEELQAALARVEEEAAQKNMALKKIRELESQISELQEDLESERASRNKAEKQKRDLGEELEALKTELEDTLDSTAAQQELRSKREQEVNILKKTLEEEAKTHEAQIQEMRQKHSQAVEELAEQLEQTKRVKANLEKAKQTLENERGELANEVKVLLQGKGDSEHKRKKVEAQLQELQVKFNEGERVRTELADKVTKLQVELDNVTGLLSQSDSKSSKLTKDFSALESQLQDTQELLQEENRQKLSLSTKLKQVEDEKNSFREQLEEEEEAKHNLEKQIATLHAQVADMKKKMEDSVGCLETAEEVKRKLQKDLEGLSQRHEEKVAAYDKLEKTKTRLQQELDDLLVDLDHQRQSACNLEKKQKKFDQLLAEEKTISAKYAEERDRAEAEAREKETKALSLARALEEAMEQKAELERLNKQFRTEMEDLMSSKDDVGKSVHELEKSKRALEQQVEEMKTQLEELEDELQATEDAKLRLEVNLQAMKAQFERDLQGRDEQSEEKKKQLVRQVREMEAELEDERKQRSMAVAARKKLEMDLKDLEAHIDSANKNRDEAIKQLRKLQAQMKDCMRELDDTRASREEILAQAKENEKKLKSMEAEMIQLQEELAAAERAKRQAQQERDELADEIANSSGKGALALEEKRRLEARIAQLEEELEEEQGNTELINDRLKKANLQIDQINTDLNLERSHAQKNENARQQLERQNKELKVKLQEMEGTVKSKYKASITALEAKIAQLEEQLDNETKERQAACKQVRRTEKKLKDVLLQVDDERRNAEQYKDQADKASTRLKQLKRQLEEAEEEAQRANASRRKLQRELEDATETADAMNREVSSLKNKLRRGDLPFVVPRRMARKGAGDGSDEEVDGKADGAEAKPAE
UniProt Q00403: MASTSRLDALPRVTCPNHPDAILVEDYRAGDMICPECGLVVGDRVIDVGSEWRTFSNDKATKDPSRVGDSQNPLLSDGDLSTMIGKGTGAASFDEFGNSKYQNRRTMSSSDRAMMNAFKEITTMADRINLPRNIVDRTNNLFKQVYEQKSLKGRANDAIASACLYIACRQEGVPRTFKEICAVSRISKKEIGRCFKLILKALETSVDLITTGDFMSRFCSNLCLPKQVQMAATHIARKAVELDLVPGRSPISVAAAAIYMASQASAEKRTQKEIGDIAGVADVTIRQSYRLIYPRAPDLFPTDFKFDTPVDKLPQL

Target: myosin heavy chain 9 (MYH9) (human (endogenous in MGC 80-3)) (UniProt P35579)
Experiment: co-IP; nuclear protein extract of MGC 80-3 cells, IP with a MYH9 antibody, western blot; rabbit IgG as negative control

binding: binds
Molecule: transcription factor II B (TFIIB) (from UniProt Q00403 1-316)

binding: binds
B1: myosin light chain 9 (MYL9) (protein, UniProt P24844 1-172)
chain: MSSKRAKAKTTKKRPQRATSNVFAMFDQSQIQEFKEAFNMIDQNRDGFIDKEDLHDMLASLGKNPTDEYLEGMMSEAPGPINFTMFLTMFGEKLNGTDPEDVIRNAFACFDEEASGFIHEDHLRELLTTMGDRFTDEEVDEMYREAPIDKKGNFNYVEFTRILKHGAKDKDD
